Some of the results follow.
system: T1, CTL2-GFP (C. trachomatis L2/434/Bu, GFP-expressing); design: species or system HeLa; Intracellular C. trachomatis growth in HeLa cells, bulk GFP fluorescence relative to DMSO; conditions: bulk GFP, single well; 28.5 h, 10 µM; inhibitor
T1 construct: L2/434/Bu, GFP-expressing

| Compound | % of control remaining [%] |
| --- | --- |
| O=C1CNC(=O)C2(C/C=C/C[C@H]3COCC[C@H]3N1)CCN(Cc1cccc3[nH]ccc13)CC2 [CBK292073] | 134.928 |
| COc1ccccc1-c1[nH]nc(O)c1Cc1c(Cl)cccc1Cl [CBK107933] | 105.484 |
| CN1CCN(S(=O)(=O)c2ccc(C(C)(C)C)cc2)CC1 [CBK051237] | 96.7114 |
| COc1cccc(N2CCN(CC(CC(=O)Nc3ccccc3)C(=O)O)CC2)c1 (stereo not shown) [CBK286813] | 140.802 |
| N=c1n(CCN2CCCCC2)c2ccccc2n1CC(O)COc1ccccc1 (stereo not shown) [CBK262451C] | 100 |
| CCCCOc1ccc(S(=O)(=O)Nc2ccc(-c3cn4ccccc4n3)cc2)cc1 [CBK264374] | 132.099 |
| COc1ccccc1N1CCN(CC(CC(=O)Nc2ccc3c(c2)OCO3)C(=O)O)CC1 (stereo not shown) [CBK286822] | 123.248 |
| COc1cc(/C=C2/SC(=N)NC2=O)ccc1OCc1ccccc1[N+](=O)[O-] [CBK262181] | 118.979 |
| COc1ccccc1N1CCN(C(=O)c2ccc3c(c2)no[n+]3[O-])CC1 [CBK091510] | 93.958 |
| Cn1cc(CC(=O)N2CCCc3ccccc32)c2ccccc21 [CBK200349] | 98.3428 |
| Cc1nn(CC(=O)N2CCC(C)CC2)c(=O)c2cc3occc3n12 [CBK283654] | 133.199 |
| CCN(Cc1ccncc1)C(=O)NCc1ccc(F)cc1 [CBK155146] | 95.9633 |
| COc1ccc(C(=O)N2CCC3(CCN(C(=O)CCSC)C3)C2)cc1OC (stereo not shown) [CBK131786] | 114.625 |
| CC(=O)Nc1cccc(-n2nnnc2SCc2cnn(C)c2)c1 [CBK305471] | 79.075 |
| Cc1csc2c(C3CCCN(C(=O)c4cc[nH]n4)C3)nc(C)n12 (stereo not shown) [CBK285238] | 135.473 |
| COCC(C)NC(=O)Cn1c(-c2cccs2)cc2cccnc21 (stereo not shown) [CBK282557] | 127.492 |
| O=C1CSC(Nc2nc(-c3ccccc3)cs2)=N1 [CBK026880] | 129.761 |
| CCOc1ccc(-n2nnnc2SCC(=O)c2ccc(Cl)c(Cl)c2)cc1 [CBK141942] | 78.1521 |
| Cc1cc(C)c2c(C(C)(C)C)nn(-c3ccc(C(=O)O)cc3)c2n1 [CBK267481] | 126.214 |
| Cc1nc(C(Cc2ccsc2)NC(=O)c2ccnn2C)sc1C (stereo not shown) [CBK284778] | 117.91 |
| COC(=O)c1cc(Br)ccc1NC(=O)COc1ccccc1C [CBK263715] | 113.377 |
| CCN(CC)CCN(C)Cc1ccccc1Br [CBK026593] | 116.337 |

Some of the entries above, reformatted:
Compound | % of control remaining [%]
Cc1nn(CC(=O)N2CCC(C)CC2)c(=O)c2cc3occc3n12 [CBK283654] | 133.199
CCN(Cc1ccncc1)C(=O)NCc1ccc(F)cc1 [CBK155146] | 95.9633
